Test results reported in PMC3685568.
No constants are given. Whether binding was seen depends on the method and setting. Binding seen in cells or lysates may run through a third protein. Some binding calls cover weakened binding; strength is not graded here.

The chains behind the UniProt entries cited, without tags or fusion partners.
UniProt P78560: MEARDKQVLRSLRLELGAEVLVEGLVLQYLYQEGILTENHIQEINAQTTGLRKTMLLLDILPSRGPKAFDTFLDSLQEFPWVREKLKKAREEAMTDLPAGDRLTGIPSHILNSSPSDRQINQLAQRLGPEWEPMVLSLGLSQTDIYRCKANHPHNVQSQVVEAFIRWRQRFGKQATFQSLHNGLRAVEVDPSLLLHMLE

Experiments:
[1] = target: RAIDD protein (human (endogenous in SK-BR-3 and MCF-7)) (UniProt P78560); test: co-IP; endogenous RAIDD precipitated with anti-RAIDD antibody on protein A/G agarose beads from MCF-7 lysate (1% NP-40, 20 mM TRIS pH 7.4, 1 mM EDTA, 5% glycerol, 250 mM NaCl; 300 ug of cell proteins, overnight); cells incubated 24 h with 300 nM paclitaxel; western blot
[2] = target: RAIDD protein (human (endogenous in SK-BR-3 and MCF-7)) (UniProt P78560); test: co-IP; endogenous RAIDD precipitated with anti-RAIDD antibody on protein A/G agarose beads from SK-BR-3 lysate (1% NP-40, 20 mM TRIS pH 7.4, 1 mM EDTA, 5% glycerol, 250 mM NaCl; 300 ug of cell proteins, overnight); cells incubated 24 h with 100 nM paclitaxel; western blot

B1: PIDD protein (protein, UniProt Q9HB75 1-910)
chain: MAATVEGPELEAAAAAGDASEDSDAGSRALPFLGGNRLSLDLYPGGCQQLLHLCVQQPLQLLQVEFLRLSTHEDPQLLEATLAQLPQSLSCLRSLVLKGGQRRDTLGACLRGALTNLPAGLSGLAHLAHLDLSFNSLETLPACVLQMRGLGALLLSHNCLSELPEALGALPALTFLTVTHNRLQTLPPALGALSTLQRLDLSQNLLDTLPPEIGGLGSLLELNLASNRLQSLPASLAGLRSLRLLVLHSNLLASVPADLARLPLLTRLDLRDNQLRDLPPELLDAPFVRLQGNPLGEASPDAPSSPVAALIPEMPRLFLTSDLDSFPVTPQGCSVTLACGVRLQFPAGATATPITIRYRLLLPEPGLVPLGPHDALLSHVLELQPHGVAFQQDVGLWLLFTPPQARRCREVVVRTRNDNSWGDLETYLEEEAPQRLWAHCQVPHFSWFLVVSRPVSNACLVPPEGTLLCSSGHPGVKVIFPPGATEEPRRVSMQVVRMAGRELQALLGEPEAAVSPLLCLSQSGPPSFLQPVTVQLPLPSGITGLSLDRSRLHLLYWAPPAATWDDITAQVVLELTHLYARFQVTHFSWYWLWYTTKNCVGGLARKAWERLRLHRVNLIALQRRRDPEQVLLQCLPRNKVDATLRRLLERYRGPEPSDTVEMFEGEEFFAAFERGIDVDADRPDCVEGRICFVFYSHLKNVKEVYVTTTLDREAQAVRGQVSFYRGAVPVRVPEEAEAARQRKGADALWMATLPIKLPRLRGSEGPRRGAGLSLAPLNLGDAETGFLTQSNLLSVAGRLGLDWPAVALHLGVSYREVQRIRHEFRDDLDEQIRHMLFSWAERQAGQPGAVGLLVQALEQSDRQDVAEEVRAVLELGRRKYQDSIRRMGLAPKDPALPGSSAPQPPEPAQA
[1]
  binding: binds
[2]
  binding: binds
